Test results: PMC10235067, “Increased renal elimination of endogenous and synthetic pyrimidine nucleosides in concentrative nucleoside transporter 1 deficient mice” (Nature Communications, 2023)

Test system: CNT1
Assay: Untargeted metabolomics of Slc28a1-/- vs Slc28a1+/+ mouse urine (24 h, ad libitum)
Settings: Slc28a1-/- / Slc28a1+/+

1-hydroxyhexanoylglycine
Fold Change: 2E-01 and 0.1948 | log2(FC): -2.4 and -2.3603

5'-Methylthioadenosine
Fold Change: 0.5352 | log2(FC): -0.902

CCCCSCCC(N)C(=O)O (racemic) [D,L-Buthionine]
Fold Change: 1.4986 | log2(FC): 0.5836

CCCCCCC(N)C(=O)O (racemic) [DL-2-Aminooctanoic acid]
Fold Change: 0.6841 | log2(FC): -0.5477

CC(=O)NC(CCS)C(=O)O (racemic) [N-Acetyl-DL-homocysteine]
Fold Change: 1E-01 and 0.1376 | log2(FC): -2.9 and -2.8614

Cn1c(N)nc2nc[nH]c2c1=O [1-Methylguanine]
Fold Change: 1.4659 | log2(FC): 0.5518

Cn1cnc2c(ncn2[C@@H]2O[C@H](CO)[C@@H](O)[C@H]2O)c1=O [1-Methylinosine]
Fold Change: 1.555 | log2(FC): 0.637

NC(CCC(=O)NC(CSC1C=Cc2cccc([N+](=O)[O-])c2C1O)C(=O)NCC(=O)O)C(=O)O (stereo not drawn) [1-Nitro-7-glutathionyl-8-hydroxy-7,8-dihydronaphthalene]
Fold Change: 3E-01 and 0.2846 | log2(FC): -1.8 and -1.8133

Nc1ccn([C@H]2C=C[C@@H](CO)O2)c(=O)n1 [2',3'-Didehydro-2',3'-dideoxycytidine]
Fold Change: 0.4392 | log2(FC): -1.1871

CC1=C(C)C(=O)CCC1 [2,3-Dimethyl-2-cyclohexen-1-one]
Fold Change: 9E-02 and 0.09193 | log2(FC): -3.4 and -3.4433

C=CC=CC=O [2,4-Pentadienal]
Fold Change: 4E-01 and 0.4156 | log2(FC): -1.3 and -1.2669

CCC=CCC=CCO [2,5-Octadien-1-ol]
Fold Change: 0.07669 | log2(FC): -3.7049

O=C(O)[C@H]1O[C@@H](Oc2cccc3ccc(O)nc23)[C@H](O)[C@@H](O)[C@@H]1O [2,8-Dihydroxyquinoline-beta-D-glucuronide]
Fold Change: 0.4499 | log2(FC): -1.1524

NC(CCCCC(=O)O)C(=O)O (stereo not drawn) [2-Aminoheptanedioic acid]
Fold Change: 3E-01 and 0.289 | log2(FC): -1.8 and -1.7907

Nc1ccccc1C(=O)NCC(=O)O [2-Aminohippuric acid]
Fold Change: 5E-01 and 0.4532 | log2(FC): -1.1 and -1.1417

Nc1nc(F)nc2c1ncn2[C@H]1CC[C@@H](CO)O1 [2-Fluoro-2',3'-dideoxyadenosine]
Fold Change: 3E-01 and 0.2588 | log2(FC): -2.0 and -1.9501

Nc1nc(F)nc2c1ncn2[C@@H]1O[C@H](CO)[C@@H](O)[C@H]1O [2-Fluoroadenosine]
Fold Change: 0.6024 | log2(FC): -0.7311

C=C(C)C1CC(=O)C(C)=C(O)C1 (stereo not drawn) [2-Hydroxy-p-mentha-1,8-dien-6-one]
Fold Change: 3E+00 and 3.1916 | log2(FC): 1.7 and 1.6743

O=C(O)c1cc2ccccc2[nH]1 [2-Indolecarboxylic acid]
Fold Change: 0.4561 | log2(FC): -1.1325

CC1=NCCO1 [2-Methyl-2-oxazoline]
Fold Change: 0.8023 | log2(FC): -0.3178

O=C1CCCCN1 [2-Piperidinone]
Fold Change: 3E+00 and 2.8933 | log2(FC): 1.5 and 1.5327

CCCCC(O)C(=O)NCC(=O)O (stereo not drawn) [2-hydroxyhexanoylglycine]
Fold Change: 4E-01 and 0.4431 | log2(FC): -1.2 and -1.1742

CCCCCCC=CC(=O)NCC(=O)O [2-nonenoylglycine]
Fold Change: 1.4252 | log2(FC): 0.5112

CCCCCC=CC(=O)NCC(=O)O [2-octenoylglycine]
Fold Change: 0.4909 | log2(FC): -1.0264

Cc1cn([C@H]2CC[C@@H](CO)O2)c(=O)[nH]c1=O [3'-Deoxythymidine]
Fold Change: 1.2839 | log2(FC): 0.3606

CCC1(CCC(C)(C)O)C(=O)NC(=O)NC1=O [3'-Hydroxyamobarbital]
Fold Change: 1.4617 | log2(FC): 0.5476

CC1C(=O)C(=O)CC1(C)C (stereo not drawn) [3,4,4-Trimethyl-1,2-cyclopentanedione]
Fold Change: 4.0071 | log2(FC): 2.0026

CCCCCCC(O)CCCCC(O)CC(=O)OC(CC(=O)[O-])C[N+](C)(C)C (stereo not drawn) [3,8-Dihydroxytetradecanoylcarnitine]
Fold Change: 2E+02 and 197.61 | log2(FC): 7.6 and 7.6265

CC(C)c1ccc(CCC=O)cc1 [3-(4-Isopropylphenyl)propanal]
Fold Change: 4E+00 and 4.1565 | log2(FC): 2.1 and 2.0554

C=C1C(=O)OC2/C=C(\C)C(O)C/C=C(\C)CC(OC(=O)/C(C)=C\C)C12 (stereo not drawn) [3-Epinobilin]
Fold Change: 4E+02 and 443.23 | log2(FC): 8.8 and 8.7919

CC(O)CC(=O)OC(CC(=O)[O-])C[N+](C)(C)C (stereo not drawn) [3-Hydroxybutyrylcarnitine]
Fold Change: 2E-02 and 0.01605 | log2(FC): -6.0 and -5.9611

CCC=CCC(O)=CC(=O)OC(CC(=O)[O-])C[N+](C)(C)C (stereo not drawn) [3-Hydroxyocta-2,5-dienoylcarnitine]
Fold Change: 14.197 | log2(FC): 3.8275

CCCCCCCCCCCC(O)CC(=O)OC(CC(=O)[O-])C[N+](C)(C)C (stereo not drawn) [3-Hydroxytetradecanoyl carnitine]
Fold Change: 3E+01 and 28.002 | log2(FC): 4.8 and 4.8074

Cn1c(=N)ccn([C@@H]2O[C@H](CO)[C@@H](O)[C@H]2O)c1=O [3-Methylcytidine]
Fold Change: 1.4174 | log2(FC): 0.5033

Cn1c(N)ccnc1=O [3-Methylcytosine]
Fold Change: 1.9061 | log2(FC): 0.9306

Cn1c(N)nc(=O)c2[nH]cnc21 [3-Methylguanine]
Fold Change: 1.5501 | log2(FC): 0.6323

O=C(O)CC(=O)CC(=O)O [3-Oxoglutaric acid]
Fold Change: 0.3682 | log2(FC): -1.4414

CCCCC=C(O)CC(=O)NCC(=O)O [3-hydroxyoct-3-enoylglycine]
Fold Change: 0.3149 | log2(FC): -1.6672

CC(=O)Nc1ccc(C(=O)NCC(=O)O)cc1 [4-Acetylaminohippuric acid]
Fold Change: 2.2958 | log2(FC): 1.199

CC1(C)CC(O)CC(C)(C)N1[O] [4-Hydroxy-2,2,6,6-tetramethylpiperidine-1-oxyl]
Fold Change: 0.3835 | log2(FC): -1.3826

CC1=C(C=O)C(C)(C)C=C(O)C1=O [4-Hydroxy-2,6,6-trimethyl-3-oxo-1,4-cyclohexadiene-1-carboxaldehyde]
Fold Change: 3E+00 and 3.2069 | log2(FC): 1.7 and 1.6812

NC(=O)c1cnccc1O [4-Hydroxynicotinamide]
Fold Change: 0.5912 | log2(FC): -0.7583

NC(C(=O)O)c1ccc(O)cc1 (stereo not drawn) [4-Hydroxyphenylglycine]
Fold Change: 0.426 | log2(FC): -1.2312

Cc1ncc(CO)c(C(=O)O)c1O [4-Pyridoxic acid]
Fold Change: 1.3575 | log2(FC): 0.441

CCC(O)CCC(=O)NCC(=O)O (stereo not drawn) [4-hydroxyhexanoylglycine]
Fold Change: 3E-01 and 0.3308 | log2(FC): -1.6 and -1.5962

COc1c(-c2ccccc2)oc2cc(O)cc(O)c2c1=O [5,7-Dihydroxy-3-methoxyflavone]
Fold Change: 0.1186 | log2(FC): -3.0764

CC(=O)NCCCCC(=O)O [5-Acetamidovalerate]
Fold Change: 3E+00 and 3.1934 | log2(FC): 1.7 and 1.6751

CCCC/C=C/CCCC(=O)OC(CC(=O)[O-])C[N+](C)(C)C (stereo not drawn) [5-Decenoylcarnitine]
Fold Change: 7E+00 and 7.016 | log2(FC): 2.8 and 2.8106

Values joined by “and” are separate entries in the source; they are usually repeats but may differ in a detail not shown here. Identical values can stand only once.
